Among all 400,000 compounds or so, about 5,500 (1.4%) were called active. Inconclusive means that the source gave no clear call. Such entries were picked first, then a sample of the others. Calls follow the shape of the dose curve; as a rule, active = well fitted cell-killing curve with a large enough effect; inconclusive = small, poorly fitted or top-dose-only effect, or effect the other way; inactive = flat fitted curve, though single readings scatter. Where the call is inconclusive, the potency comes from a doubtful curve fit.
assay: qHTS assay for MDR1-selective chemotherapeutics: Primary screen using the parental adenocarcinoma cell KB-3-1; conditions: KB-3-1 viability, CellTiter-Glo ATP luminescence, 72 h; activity change, negative = cytotoxic: at 46.1 µM (top of the series); also: nearly all actives have a fitted effect of over 60% in size
Procedure, shortened: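 72 h, 37 °C compound treatment of KB-3-1 parental cells; CellTiter-Glo added, 10 min, luminescence read. Data corrected against DMSO-only plates and normalized before curve fitting.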
% is scaled to controls: 0 for no effect and ±100 for the full control effect; potency is read from the fitted curve at half-maximal effect.

Row | SMILES | Potency | activity change, negative = cytotoxic
1 | Cc1nc2ccccc2c2oc(C(=O)NCCCN3CC(C)CC(C)C3)cc12 (stereo not given) | inconclusive: 18.4 µM [cytotoxic, single point] | 
2 | Cn1c(N)c(C(=O)CSc2nc(N)cc(=O)[nH]2)c(=O)n(C)c1=O | inconclusive: 32.6 µM [rising, partial curve, poor fit] | 
3 | COC(=O)c1cc(Cc2ccc(N)c(C(=O)OC)c2)ccc1N | inconclusive: 20.6 µM [cytotoxic, single point] | 
4 | Cc1ncc(CO)c(/C=N/NC(=O)c2ccc(O)cc2)c1O |  | inactive: 0%
5 | CCOC(=O)/C=C/S(=O)(=O)c1ccc(NC(C)=O)cc1 | active: 14.6 µM | 
6 | CCc1ccc(Nc2cc(C)nc3ncnn23)cc1 | inconclusive: 20.6 µM [cytotoxic, single point] | 
7 | CCc1nc2ccc(C(=O)NCCc3ccc(OC)cc3OC)cc2nc1CC |  | inactive: -23.7%
8 | COCCN1Cc2cccc(C(=O)Nc3cccc(-c4nc5ccccc5[nH]4)c3)c2C1=O | inconclusive: 29.1 µM [cytotoxic, single point] | 
9 | CC(=O)N1c2ccccc2C2CCCC[C@H]21 (stereo not given in full) |  | inactive: -1.32%
10 | CC1(C)CC2CC(C)(CN2C(=O)c2ccc([N+](=O)[O-])cc2)C1 (stereo not given) |  | inactive: -2.96%
11 | Cn1nc(C(C)(C)C)cc1C(=O)N1CCCCC1c1cc(C(=O)Nc2cccc3c2CCCC3)no1 (stereo not given) | inconclusive: 29.1 µM [cytotoxic, single point] | 
12 | COCc1ccc(CN2CCC(n3nccc3NC(=O)CCCc3ccccc3)CC2)o1 | inconclusive: 20.6 µM [rising, partial curve, poor fit] | 
13 | Cc1ccc(CNC(=O)CCc2ccc(S(=O)(=O)NC3CCCCC3)cc2)cc1 | inconclusive: 23.1 µM [cytotoxic, partial curve, poor fit] | 
14 | CCN(C(=O)COC(=O)c1cc(=O)[nH]c2ccccc12)C1CCS(=O)(=O)C1 (stereo not given) |  | inactive: -2.25%
15 | NC(=O)C1CCN(c2ccc(C(F)(F)F)cc2[N+](=O)[O-])CC1 | inconclusive: 29.1 µM [cytotoxic, single point] | 
16 | O=C1Cc2cc(S(=O)(=O)N3CCCCC3)cc3c2N1CCC3 |  | inactive: -2.62%
17 | CCCc1nc2ccc(C)cn2c1Cc1ccc(C)cc1 |  | inactive: -3.76%
18 | Cc1ccc(NS(=O)(=O)c2ccc(-c3coc(C)n3)cc2)c(Br)c1 |  | inactive: -3.11%
19 | CC(=O)c1ccc(-c2cccc(-c3nc4ccccn4c3NC3CCCCC3)c2)cc1 | inconclusive: 18.4 µM [cytotoxic, single point] | 
20 | O=C(COC(=O)c1cc([N+](=O)[O-])ccc1N1CCOCC1)Nc1ccc(Cl)cn1 | inconclusive: 29.1 µM [cytotoxic, single point] | 
21 | CCN1CCN(Cc2ccc(NC(=O)c3ccc(C)c(NC(=O)N4CCNC4=O)c3)cc2C(F)(F)F)CC1 | inactive | 
22 | Cc1cccc(NC(=O)Nc2cccc(C#N)c2)n1 | inconclusive: 18.4 µM [cytotoxic, single point] | 
23 | CN1CCn2cnc(C(=O)N[C@@H](Cc3ccccc3)C(=O)OC(C)(C)C)c2C1=O |  | inactive: 5.12%
24 | Cc1cccc(NC(=O)NC2(C(=O)NCc3ccco3)CCCCC2)c1 | inconclusive: 18.4 µM [rising, single point] | 

Row | SMILES | Potency | activity change, negative = cytotoxic
25 | COc1ccc2cc(CN(CC3CCCO3)C(=O)Nc3ccccc3OC)c(=O)[nH]c2c1 (stereo not given) | active: 5.17 µM | 
26 | CCOC(=O)c1cc(C)n(Cc2ccc(OCC)c(OC)c2)c1C | inconclusive: 18.4 µM [cytotoxic, single point] | 
27 | Cn1cc([N+](=O)[O-])c(C(=O)Nc2ccc(Br)cn2)n1 | inconclusive: 29.1 µM [cytotoxic, single point] | 
28 | O=C(c1ccccc1)N1CCN(c2nc3ccc([N+](=O)[O-])cc3s2)CC1 | inconclusive: 18.4 µM [cytotoxic, single point] | 
29 | O=C(C[n+]1ccccc1Cl)c1ccc(O)c(O)c1 | inconclusive: 23.1 µM [rising, partial curve, poor fit] | 
30 | COc1ccc(C(=O)N/N=C\C(C)=C\c2ccccc2)cc1OC | inconclusive: 20.6 µM [cytotoxic, single point] | 
31 | O=C(Nc1cccc(-n2cccn2)c1)C1CCCN(Cc2cccc(F)c2F)C1 (stereo not given) | inconclusive: 16.4 µM [cytotoxic, single point] | 
32 | Cc1ccc(-c2nnc3c4ccccc4c(C)nn23)cc1S(=O)(=O)N1CCN(C)CC1 | inconclusive: 5.8 µM [rising, full curve] | 
33 | CCc1ccc(C(=O)C(C)OC(=O)c2nc3nc(C)cc(C)n3n2)cc1 (stereo not given) |  | inactive: 3.24%
34 | Cc1noc2ncnc(Sc3ccccc3Cl)c12 | inconclusive: 29.1 µM [cytotoxic, single point] | 
35 | CC(C)n1c(NCCc2ccccc2)nc2c1c(=O)n(C)c(=O)n2C | inconclusive: 25.9 µM [cytotoxic, single point] | 
36 | CCOc1cccc(C(=O)Nc2cccc(NC(=O)c3ccco3)c2)c1 | inconclusive: 4.61 µM [rising, partial curve, poor fit] | 
37 | COC(=O)c1ccccc1NC(=O)Cn1c(=O)n(CCCCC(=O)NCc2ccc3c(c2)OCO3)c(=O)c2ccccc21 |  | inactive: 0.128%
38 | COC(=O)C1=C(C)OC(N)=C(C#N)C1c1ccccc1 (stereo not given) |  | inactive: 2.33%
39 | c1ccc(-c2c(-c3ccccc3)n(Cc3ccco3)c3ncnc(NCCCn4ccnc4)c23)cc1 | inconclusive: 29.1 µM [cytotoxic, single point] | 
40 | CN(C)c1ccc(/C=C/c2nc3ccccc3s2)cc1Cl |  | inactive: -3.41%
41 | C=CCc1ccc(OCCCN2CCCC(C)C2)c(OC)c1 (stereo not given) |  | inactive: -16.4%
42 | CCOC(=O)CSc1nc2sc3c(c2c(=O)n1-c1ccccc1)CCN(C(C)C)C3 |  | inactive: -9.07%
43 | O=C(NC(c1ccc2ccccc2n1)c1cccs1)C1CCN(Cc2cccc(C(F)(F)F)c2)CC1 (stereo not given) | inconclusive: 29.1 µM [cytotoxic, single point] | 
44 | CCC(=O)N1c2ccccc2C(N(C(C)=O)c2ccccc2)CC1C (stereo not given) | inconclusive: 16.4 µM [cytotoxic, partial curve] | 
45 | CC(=O)C(=Cc1ccc(-c2ccccc2)cc1)C(=O)c1ccccc1 | inconclusive: 18.4 µM [cytotoxic, single point] | 
46 | Cc1cccc(Nc2cc(C)nc3ccccc23)c1 |  | inactive: -12.3%
47 | Cc1ccc(F)cc1N=Cc1c(O)c2ccccc2oc1=O | inconclusive: 18.4 µM [cytotoxic, single point] | 
48 | CCOC(=O)c1[nH]c(C)c(C(=O)c2ccc(C)cc2)c1C |  | inactive: -0.991%

Row | SMILES | Potency | activity change, negative = cytotoxic
49 | Cc1ccc(-n2c(N)c(C#N)c(-c3ccc(Cl)cc3)c(C#N)c2=O)cc1 |  | inactive: 0%
50 | CC(C)c1ccc(C2C3=C(CC(C)(C)CC3=O)NC3=C2C(=O)c2ccccc23)cc1 (stereo not given) | inconclusive: 20.6 µM [cytotoxic, single point] | 
51 | NNc1nc(-c2ccccc2Cl)c2cc(Br)ccc2n1 | inconclusive: 16.4 µM [cytotoxic, partial curve, poor fit] | 
52 | Cc1sc2ncn(CC(=O)NCc3ccccc3)c(=O)c2c1C | inconclusive: 29.1 µM [cytotoxic, partial curve, poor fit] | 
53 | OC(c1ccccc1)c1nc(-c2ccccc2)cs1 (stereo not given) | inconclusive: 29.1 µM [cytotoxic, single point] | 
54 | COc1cc(C2=CN(Cc3ccccc3)CCC2=O)cc(OC)c1OC | inconclusive: 13 µM [rising, partial curve] | 
55 | COc1cccc(SCc2noc(C(=O)NCCC(C)C)c2C(=O)NCCC(C)C)c1 |  | inconclusive: -37% [cytotoxic]
56 | O=C(NCCN1CCOCC1)c1cccc(S(=O)(=O)Nc2ccc(Br)cc2)c1 |  | inactive: 0%
57 | S=C(Nc1cccc(Cl)c1)N(CCCN1CCCC1)Cc1cccn1Cc1ccc(Cl)cc1 | inconclusive: 18.4 µM [cytotoxic, single point] | 
58 | Cc1cc(NC(=O)c2ccc3sc([C@@H]4O[C@H](CO)[C@H](O)[C@H](O)[C@H]4O)nc3c2)no1 |  | inactive: 8.97%
59 | Oc1ccc(C[C@H]2CNC(=S)N2CC2CCCN2C[C@H](Cc2ccccc2)N2C[C@H](Cc3ccc(O)cc3)N(CC3CCCCCC3)C2=S)cc1 (stereo not given in full) | inconclusive: 25.9 µM [cytotoxic, single point] | 
60 | Cc1cc(Nc2ccccc2)n(-c2ccc(Br)cc2)n1 | inconclusive: 29.1 µM [cytotoxic, single point] | 
61 | N#Cc1ccccc1NC(=O)C(=O)NCC(c1cccnc1)N1CCc2ccccc21 (stereo not given) |  | inactive: -22%
62 | COc1ccccc1-c1cc(C(=O)N/N=C/c2ccc(C)s2)c2ccccc2n1 | inconclusive: 29.1 µM [cytotoxic, single point] | 
63 | CC(C)(C)NC(=O)N1c2ccccc2Sc2ccccc21 | inconclusive: 16.4 µM [cytotoxic, single point] | 
64 | CNc1cncc(-c2cc(C)c(O)c(C)c2)n1 | inconclusive: 29.1 µM [cytotoxic, single point] | 
65 | COc1ccc([C@H]2C[C@H](O)[C@@H](n3cc(-c4ccc(F)cc4)nn3)CN2CC2CCCCC2)cc1 | inconclusive: 20.6 µM [cytotoxic, single point] | 
66 | O=C(CN1C(=O)COc2ccc(Cl)cc21)Nc1ccc2c(c1)OCCO2 | inconclusive: 29.1 µM [cytotoxic, single point] | 
67 | O=C(CSc1ccccn1)Nc1nonc1[N+](=O)[O-] | inconclusive: 29.1 µM [cytotoxic, single point] | 
68 | Cc1cc(C)nc(SCc2cccc(C(=O)O)c2)n1 |  | inactive: 0.433%
69 | c1ccc(CNc2nc(NCC3CC3)nc3cc(-c4ccccc4)sc23)cc1 | inconclusive: 29.1 µM [cytotoxic, single point] | 
70 | CC(C)(C)n1nnnc1C(c1ccc(F)cc1)N(Cc1ccc(F)cc1)Cc1ccco1 (stereo not given) | inconclusive: 18.4 µM [cytotoxic, single point] | 

Rewritten tab-delimited: entries from further up.
Row	SMILES	Potency	activity change, negative = cytotoxic
9	CC(=O)N1c2ccccc2C2CCCC[C@H]21 (stereo not given in full)		inactive: -1.32%
10	CC1(C)CC2CC(C)(CN2C(=O)c2ccc([N+](=O)[O-])cc2)C1 (stereo not given)		inactive: -2.96%
11	Cn1nc(C(C)(C)C)cc1C(=O)N1CCCCC1c1cc(C(=O)Nc2cccc3c2CCCC3)no1 (stereo not given)	inconclusive: 29.1 µM [cytotoxic, single point]	
12	COCc1ccc(CN2CCC(n3nccc3NC(=O)CCCc3ccccc3)CC2)o1	inconclusive: 20.6 µM [rising, partial curve, poor fit]	
13	Cc1ccc(CNC(=O)CCc2ccc(S(=O)(=O)NC3CCCCC3)cc2)cc1	inconclusive: 23.1 µM [cytotoxic, partial curve, poor fit]	
14	CCN(C(=O)COC(=O)c1cc(=O)[nH]c2ccccc12)C1CCS(=O)(=O)C1 (stereo not given)		inactive: -2.25%
15	NC(=O)C1CCN(c2ccc(C(F)(F)F)cc2[N+](=O)[O-])CC1	inconclusive: 29.1 µM [cytotoxic, single point]	
16	O=C1Cc2cc(S(=O)(=O)N3CCCCC3)cc3c2N1CCC3		inactive: -2.62%
17	CCCc1nc2ccc(C)cn2c1Cc1ccc(C)cc1		inactive: -3.76%
18	Cc1ccc(NS(=O)(=O)c2ccc(-c3coc(C)n3)cc2)c(Br)c1		inactive: -3.11%
19	CC(=O)c1ccc(-c2cccc(-c3nc4ccccn4c3NC3CCCCC3)c2)cc1	inconclusive: 18.4 µM [cytotoxic, single point]	
20	O=C(COC(=O)c1cc([N+](=O)[O-])ccc1N1CCOCC1)Nc1ccc(Cl)cn1	inconclusive: 29.1 µM [cytotoxic, single point]	
21	CCN1CCN(Cc2ccc(NC(=O)c3ccc(C)c(NC(=O)N4CCNC4=O)c3)cc2C(F)(F)F)CC1	inactive	
22	Cc1cccc(NC(=O)Nc2cccc(C#N)c2)n1	inconclusive: 18.4 µM [cytotoxic, single point]	

Source: PubChem BioAssay AID1347075 (National Center for Advancing Translational Sciences (NCATS), 2019)
